The whole screen tested about 330,000 compounds, of which about 7,700 (2.3%) were called active. Inconclusive results, whose numbers are uncertain, are shown with a selection of clear calls. Calls follow the shape of the dose curve; as a rule, active = well fitted inhibition curve with a large enough effect; inconclusive = small, poorly fitted or top-dose-only effect, or effect the other way; inactive = flat fitted curve, though single readings scatter. Potencies beside an inconclusive call are fits to weak or partial responses and may not hold up.
test: qHTS screen for small molecules that inhibit ELG1-dependent DNA repair in human embryonic kidney (HEK293T) cells expressing luciferase-tagged ELG1; conditions: HEK293T ELG1-luciferase reporter, luminescence, 16 h, DNA damage induced by 5-fluorouridine; activity change, negative = inhibition: at 46.1 µM (top of the series); also: nearly all actives have a fitted effect of over 55% in size
Procedure, shortened: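 Quantitative HTS, concentration-response format. 2,000 cells/well co-treated with 5-fluorouridine and compound, 16 hr in 5% CO2 at 37 °C; ONE-Glo luminescence read after 30 min.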
% is scaled to controls: 0 for no effect and ±100 for the full control effect; potency is read from the fitted curve at half-maximal effect.

Row | SMILES | activity change, negative = inhibition | Potency
1 | O=C1CS/C(=N/N=C2CCCC2)N1 | inactive: 6.86% | 
2 | CCN1C(=O)C2C(c3ccccc3F)NC(Cc3ccc(O)cc3)(C(=O)OC)C2C1=O (centres undefined) |  | inconclusive: 20.6 µM [inhibitor, single point]
3 | COc1cc(C2C(C#N)=C(N)OC3=C2C(=O)CC(C)(C)C3)ccc1OCCN1CCOCC1 (centres undefined) |  | inconclusive: 18.3 µM [activator, partial curve]
4 | [N-]=[N+]=NC[C@H](Cc1ccccc1)N1CC[C@@H](NC(=O)OCc2ccccc2)CCC1=O |  | inconclusive: 25.9 µM [inhibitor, single point]
5 | COc1ccc(CCCc2nnc(SCC(=O)Nc3cccc(C)c3)o2)cc1 |  | inconclusive: 29.1 µM [inhibitor, single point]
6 | O=C(NCCS(=O)(=O)NCCc1ccccc1)c1ccc2c(c1)OCO2 |  | inconclusive: 8.2 µM [activator, partial curve]
7 | O=C(NCc1cc([N+](=O)[O-])ccc1O)c1cccnc1Sc1ccc(Cl)cc1 |  | inconclusive: 6.51 µM [activator, partial curve]
8 | CCCN1CCC(=NNc2ccc(C(=O)O)cc2)CC1 |  | inconclusive: 3.66 µM [activator, full curve]
9 | Cc1ccc2nc(-c3ccc(NC(=O)C(C)N4C(=O)c5ccccc5C4=O)cc3)sc2c1 (centres undefined) |  | inconclusive: 9.2 µM [activator, partial curve]
10 | CCOC(=O)CC[C@H](NC(=O)Cn1cnc(C(=O)Nc2ccc(C)c(C)c2)n1)C(=O)OCC |  | inconclusive: 18.3 µM [activator, partial curve]
11 | COc1ccc(NC(=O)CN(Cc2ccco2)Cc2ccco2)cc1S(=O)(=O)N1CCCCC1 |  | inconclusive: 25.9 µM [inhibitor, partial curve, poor fit]
12 | CCn1c(=O)c([N+](=O)[O-])c(N2CCSCC2)c2ccccc21 |  | active: 6.51 µM
13 | COc1cc(C(C(=O)NCc2ccccc2)N(Cc2ccco2)C(=O)c2cnccn2)cc(OC)c1OC (centres undefined) |  | inconclusive: 18.3 µM [inhibitor, partial curve, poor fit]
14 | COc1cc(CCCN[C@H](CN)Cc2ccccc2)cc(OC)c1OC | inconclusive: 11.6% [activator] | 
15 | NC(=O)c1sc2nc3c(c(-c4ccco4)c2c1N)CCC3 |  | inconclusive: 2.59 µM [inhibitor, full curve]
16 | COc1ccc2[nH]c3c(c2c1)CCC/C3=N\N |  | inconclusive: 2.59 µM [inhibitor, full curve, poor fit]
17 | CSc1nc2[nH]c3c(c2c2ncnn12)CCCC3 | inactive: -6.51% | 
18 | N#C/C(=C(/O)CN1CCCC1)c1nc(-c2ccccc2)cs1 |  | inconclusive: 14.6 µM [activator, partial curve]
19 | CN(Cc1ccccc1)c1nc(CN2CCOCC2)nc2scc(-c3ccccc3)c12 |  | inconclusive: 18.4 µM [inhibitor, partial curve, poor fit]
20 | COc1ccc(CNC(=O)C2CCCN(S(=O)(=O)c3ccc(Br)s3)C2)cc1 (centres undefined) |  | inconclusive: 23.1 µM [inhibitor, single point]

Row | SMILES | activity change, negative = inhibition | Potency
21 | N/C(CS(=O)(=O)c1ccccc1)=N\OC(=O)c1ccc(F)cc1 |  | inconclusive: 20.6 µM [activator, single point]
22 | O=C(CN1CCCCCC1)Nc1c(Cl)cc(Cl)cc1Cl |  | inconclusive: 20.6 µM [activator, partial curve]
23 | CCCCN(C)CCN1C(=O)C2C(C(=O)Nc3ccc(OC)cc3)C3C=CC2(O3)C1C(=O)NC1CCCCC1 (centres undefined) | inactive: 27.3% | 
24 | O=C(NN=Cc1ccccc1OC(F)F)c1ccc(NS(=O)(=O)c2cccs2)cc1 |  | inconclusive: 16.4 µM [inhibitor, partial curve]
25 | CC(C)C(=O)Nc1ccc(C(=O)N/N=C/c2cc(Br)cc(Br)c2O)cc1 |  | inconclusive: 16.4 µM [inhibitor, partial curve, poor fit]
26 | Nc1cc(=O)[nH]c(SCC(=O)Nc2nc3ccc([N+](=O)[O-])cc3s2)n1 | inactive: 8.97% | 
27 | Cc1ccsc1C(=O)NNC(=O)C1CC=CCC1C(=O)O (centres undefined) |  | inconclusive: 20.6 µM [activator, single point]
28 | O=C(C[C@H]1C/C=C\CC[C@H](Cc2ccc(F)cc2)C(=O)OC[C@@H](Cc2c[nH]c3ccccc23)NC1=O)NCCO | inactive: -2.19% | 
29 | Cc1ccc2nc(NC(=O)C3CCCN(S(=O)(=O)c4cccnc4)C3)sc2c1 (centres undefined) |  | inconclusive: 20.6 µM [inhibitor, single point]
30 | Cc1occc1C(=O)NNC(=O)COc1ccc(Br)cc1Br |  | inconclusive: 20.6 µM [activator, partial curve]
31 | COc1cc(C(=O)NCCCCCCNC(=O)c2cc(OC)c(OC)c(OC)c2)cc(OC)c1OC |  | inconclusive: 2.91 µM [activator, single point]
32 | O=C1N=C(N2CCN(c3ccccc3)CC2)S/C1=C\c1ccco1 |  | inconclusive: 23.1 µM [inhibitor, single point]
33 | O=[N+]([O-])c1ccc(-c2nc(Nc3cccc(O)c3)c3ccccc3n2)cc1 |  | inconclusive: 18.3 µM [inhibitor, single point]
34 | CS(=O)(=O)c1ccc(Cl)c(NC(=O)CSc2nc3ccccc3c(=O)n2Cc2ccco2)c1 | inactive: -12.4% | 
35 | CC(=O)c1c(Nc2ccc3c(c2)OCCO3)oc(C)cc1=O |  | inconclusive: 20.6 µM [activator, partial curve]
36 | CCCCc1c(O)nc2sc3cc(OC)ccc3n2c1=O |  | inconclusive: 20.6 µM [activator, single point]
37 | C#CCOCCOCCOCCNc1nc(N2CCN(C(=O)CCCCCCCCCCNC(=O)[C@H]([C@@H](C)CC)n3cc(CCCCN=C(N)N)nn3)CC2)nc(N2CCN(C(=O)CCCCCCCCCCNC(=O)[C@H](CCCN=C(N)N)n3cc(C[C@@H](C)CC)nn3)CC2)n1 |  | inconclusive: 35.5 µM [inhibitor, single point]
38 | Cc1ccc2sc(NC(=O)C3CC3)nc2c1C |  | inconclusive: 23.1 µM [activator, single point]
39 | Cc1ccc(C2=Nc3c(ccc4ccccc34)C(c3ccncc3)=NN2)cc1 |  | inconclusive: 29.1 µM [inhibitor, single point]

2 records drawn at random from those above:
Row | SMILES | activity change, negative = inhibition | Potency
25 | CC(C)C(=O)Nc1ccc(C(=O)N/N=C/c2cc(Br)cc(Br)c2O)cc1 |  | inconclusive: 16.4 µM [inhibitor, partial curve, poor fit]
22 | O=C(CN1CCCCCC1)Nc1c(Cl)cc(Cl)cc1Cl |  | inconclusive: 20.6 µM [activator, partial curve]

Source: PubChem BioAssay AID504467 (National Center for Advancing Translational Sciences (NCATS), 2011)
